This test deals with CD22 9A8CAR (aCD22_9A8-1-64_LH_scFv-CD8STK-41BBz). The test can be described thus: flow cytometry of CAR T cells, product before injection and mouse bone marrow at day 14; 9A8CAR stained with soluble recombinant CD22 ectodomain [cont.) F]. Background: Flow cytometry measures light scatter and fluorescence of single cells or particles in a stream.

Chains of the proteins cited; added tags and fusions are not shown. Residues count along the entry.
UniProt P20273, residues 20-687: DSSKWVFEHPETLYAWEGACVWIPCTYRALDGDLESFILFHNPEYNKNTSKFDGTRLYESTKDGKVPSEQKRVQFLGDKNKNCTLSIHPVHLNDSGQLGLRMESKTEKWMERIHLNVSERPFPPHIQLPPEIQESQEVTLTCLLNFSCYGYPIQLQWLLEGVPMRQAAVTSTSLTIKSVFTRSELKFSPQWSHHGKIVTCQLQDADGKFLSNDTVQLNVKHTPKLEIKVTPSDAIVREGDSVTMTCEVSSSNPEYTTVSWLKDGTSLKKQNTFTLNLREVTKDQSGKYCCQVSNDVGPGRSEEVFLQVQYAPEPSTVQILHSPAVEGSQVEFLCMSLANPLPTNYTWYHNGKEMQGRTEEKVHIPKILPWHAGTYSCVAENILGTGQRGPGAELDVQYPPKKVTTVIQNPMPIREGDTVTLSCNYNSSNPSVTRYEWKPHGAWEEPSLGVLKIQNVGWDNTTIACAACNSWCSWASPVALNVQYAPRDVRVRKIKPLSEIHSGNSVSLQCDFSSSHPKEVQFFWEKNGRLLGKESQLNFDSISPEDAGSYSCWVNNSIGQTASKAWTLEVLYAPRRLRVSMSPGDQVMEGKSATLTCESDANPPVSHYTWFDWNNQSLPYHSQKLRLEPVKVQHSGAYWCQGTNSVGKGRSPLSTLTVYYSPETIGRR

These are yes or no findings as the source states them, for the method shown. Some results given as binding are weak or reduced against the parent protein; the word gives no strength.

As for “recombinant soluble CD22 ectodomain (from UniProt P20273 20-687) (receptor)”, the binding entry is “binds”.

These data come from patent US20260097122A1 (AUTOLUS, published 2026).
